No constants are given. Whether binding was seen depends on the method and setting. Some results given as binding are weak or reduced against the parent protein; the word gives no strength.
Experiments:
[1] = molecular target: T1, human CD6 (human) (UniProt P30203); test: flow cytometry on isolated Tregs from a healthy donor, co-stained with anti-CD6 (Commercial) (x-axis)
T1 sequence (looked up): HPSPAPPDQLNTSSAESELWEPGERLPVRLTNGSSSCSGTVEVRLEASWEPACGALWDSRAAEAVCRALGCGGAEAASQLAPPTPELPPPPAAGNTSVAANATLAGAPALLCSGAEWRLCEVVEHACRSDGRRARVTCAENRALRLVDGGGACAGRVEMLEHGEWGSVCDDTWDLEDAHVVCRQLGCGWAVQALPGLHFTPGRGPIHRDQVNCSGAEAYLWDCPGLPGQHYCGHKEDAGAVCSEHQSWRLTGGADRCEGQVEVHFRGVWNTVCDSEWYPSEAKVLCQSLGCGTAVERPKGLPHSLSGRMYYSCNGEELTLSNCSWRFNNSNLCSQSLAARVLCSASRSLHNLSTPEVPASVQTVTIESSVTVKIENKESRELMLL

[2] = molecular target: T1, human CD6 (human); test: ELISA on human CD6

binding [1]: binds
binding [2]: binds
B1: meditope-enabled anti-CD6 mAb (antibody, IgG1, V domains shown)
VH: EVQLVESGGGLVKPGGSLKLSCAASGFKFSRYAMSWVRQAPGKRLEWVATISSGGSYIYYPDSVKGRFTISRDNVKNTLYLQMSSLRSEDTAIYYCARRDYDLDYFDSWGQGTLVTVSS
VL: DIQMTQSPILLSASVGDRVTITCKASRDIRSYLTWYQQRTNGSPRTLIYYATSLADGVPSRFSGSGSGQDYSLTISSLESDDIADYYCLQHGESPFTFGSGTKLEIKR

— patent US20220073637A1
